This note sets out measurements from the supplement of paper PMC7125110.

± gives the standard error. The uncertainty is large for many entries.

The labels stand for the following.
B1: glmS ribozyme (parent)
chain: AUAAAAGCGCCAGAACUACAGAAAUGUAGUUGACGAGGAGGAGGUUUAUCGAAUUUUCGGCGGAUGCCUCCAAA

In one series the parent is B1. As to the kind of experiment: KM; higher = weaker cofactor use; RNA array. The note with it: with glucosamine-6-phosphate. An outline of the steps: (§1)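 Sequenced MiSeq chips were the platform: E. coli RNA polymerase transcribed barcoded ribozyme variants on them in situ, and a hybridised Cy3 probe tracked these at 37 °C. After glucosamine-6-phosphate (40 μM to 10 mM) in HEPES/KCl/Mg(OAc)2 buffer was flowed in, tiles were imaged over ~14 h. Signals normalised to baseline and to non-cleaving reference variants were reduced to per-tile medians and fit to one- or two-exponential decays to obtain kobs. kcat and KM were derived through weighted Michaelis–Menten fits across concentrations.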
For the variant AUAAAAGCGCCAGAGCUACAGAAAUGUAGUUGACGAGGAGGAGGGUUAUCGAAUUUUCGGCGGAUGCCUCCAAA [A15G U45G], the KM was 1730 ± 260 µM.
On the same count and under the same terms, next, AUAAAAGCGCCAGAGCUACAGAAAUGUAGUUGACGAGGAGGAGGUUUAUCGAACUUUCGGCGGAUGCCUCCAAA [A15G U54C]: 608 ± 330 µM.
On the same count and under the same terms, next, AUAAAAGCGCCAGUACUACAGAAAUGUAGUUGACGAGGAGGUGGUUUAUCGAAUUUUCGGCGGAUGCCUCCAAA [A14U A42U]: 884 ± 270 µM; AUAAAAGCGCCAGAUCUACAGAAAUGUAGUUGACGAGGAGGAGGUUUUUCGAAUUUUCGGCGGAUGCCUCCAAA [A15U A48U]: 17300 ± 8400 µM; AUAAAAGCGCCAGAGCUACAGAAAUGUAUUUGACGAGGAGGAGGUUUAUCGAAUUUUCGGCGGAUGCCUCCAAA [A15G G29U]: 2350 ± 1500 µM.
On the same count and under the same terms, next, AUAAAAGCGCCAGAGCUACAGAAAUGUACUUGACGAGGAGGAGGUUUAUCGAAUUUUCGGCGGAUGCCUCCAAA [A15G G29C]: 3540 ± 1400 µM; AUAAAAGCGCCAGUACUACAGAAAUGUAGUUGACGAGGAGGAAGUUUAUCGAAUUUUCGGCGGAUGCCUCCAAA [A14U G43A]: 26700 ± 16000 µM.
As to AUAAAAGCGCCAGUACUACAGAAAUGUAGUUGACGAGGAGGAGGUUCAUCGAAUUUUCGGCGGAUGCCUCCAAA [A14U U47C], the KM is 1430 ± 360 µM.
Take AUAAAAGCGCCAGUACUACAGAAAUGUAGUUGACGAGGAGGAGGUGUAUCGAAUUUUCGGCGGAUGCCUCCAAA [A14U U46G]: the KM worked out at 2150 ± 380 µM.
Consider AUAAAAGCGCCAGAGCUACAGAAAUGUAGUUGACGAGGAGGAGGUUCAUCGAAUUUUCGGCGGAUGCCUCCAAA [A15G U47C], for which the KM came to 1660 ± 350 µM.
On the same count and under the same terms, the figure for AUAAAAGCGCCAGACCUACAGAAAUGUAGUUGACGAGGAGGAGGUUUAUCGAAAUUUCGGCGGAUGCCUCCAAA [A15C U54A] is 1930 ± 730 µM; for AUAAAAGCGCCAGAUCUACAGAAAUGUAGUUGACGAGGGGGAGGUUUAUCGAAUUUUCGGCGGAUGCCUCCAAA [A15U A39G] it is 1830 ± 730 µM.
Same read-out and setting: next, AUAAAAGCGCCAGGACUACAGAAAUGUAGUUGACGAGGAGGAGGUUUAUCGAAUGUUCGGCGGAUGCCUCCAAA [A14G U55G]: 314 ± 180 µM.
On the same count and under the same terms, the figure for AUAAAAGCGCCAGGACUACAGAAAUGUAGUUGACGAGGAGGAGGUUUAUCGAAUCUUCGGCGGAUGCCUCCAAA [A14G U55C] is 1530 ± 800 µM; for AUAAAAGCGCCAGACCUACAGAAAUGUAGCUGACGAGGAGGAGGUUUAUCGAAUUUUCGGCGGAUGCCUCCAAA [A15C U30C] it is 3040 ± 2500 µM.
On to AUAAAAGCGCCAGAGCUACAGAAAUGUAGUUGACGAGGAGGAGGUUUAUCGAAUUUUUGGCGGAUGCCUCCAAA [A15G C58U], for which the Michaelis constant (KM) was 13200 ± 5300 µM.
Regarding AUAAAAGCGCCAGUACUACAGAAAUGUAUUUGACGAGGAGGAGGUUUAUCGAAUUUUCGGCGGAUGCCUCCAAA [A14U G29U], the Michaelis constant (KM) was found to be 2040 ± 400 µM.
AUAAAAGCGCCAGGACUACAGAAAUGUAGUUGACGAGGAGUAGGAUUAUCGAAUUUUCGGCGGAUGCCUUCAAA [A14G G41U U45A C70U]: the Michaelis constant (KM) came out at 90.7 ± 54 µM.
Turning to AUAAAAGCGCCAGUACUACAGAAAUGUAGUUGACGAGGAGGAGGUUUAUCGAAUUUUCGGCGCAUGCCUCCAAA [A14U G63C], the KM amounted to 138 ± 100 µM.
Still for that read-out and setting: the figure for AUAAAAGCGCCAGACCUACAGAAAUGUAGUUAACGAGGAGGAGGUUUAUCGAAUAUUCGGCGGAUGCCUCCAAA [A15C G32A U55A] is 5560 ± 3900 µM; for AUAAAAGCGCCAGACCUACAGAAAUGUAGUUCACGAGGAGGAGGUUUAUCGAAUUUUCGGCGGAUGCCUCCAAA [A15C G32C] it is 3300 ± 240 µM.
Still for that read-out and setting: the figure for AUAAAAGCGCCAGUACUACAGAAAUGUAGUUGACGAGGAGAAGGUUUAUCGAAUUUUCGGCGGAUGCCUCCAAA [A14U G41A] is 1930 ± 1000 µM.
The same measure, in the same setting: the figure for AUAAAAGCGCCAGUACUACAGAAAUGUAGUUGACGAGGAGUAGGUUUAUCGAAUUUUCGGCGGAUGCCUCCAAA [A14U G41U] is 1010 ± 220 µM.
For AUAAAAGCGCCAGUACUACAGAAAUGUAGUUGACGAGGAGGAGGUUUAUCGAAUUUUCGGCGGAUGCCUGCAAA [A14U C70G], the KM is 338 ± 170 µM.
Consider AUAAAAGCGCCAGAGCUACAGAAAUGUAGUUGACGAGGAGGAGGUUUAUCGAAUUUUCGGCGGAUGCCUUCAAA [A15G C70U], for which the KM amounted to 169 ± 140 µM.
Still for that read-out and setting: next, AUAAAAGCGCCAGAGCUACAGAAAUGUAGUUGACGAGGAGGAGGUUUAUCGAAUUUUCGGCGGAUCCCUCCAAA [A15G G66C]: 833 ± 220 µM; AUAAAAGCGCCAGGACUACAGAAAUGUAGUUGACGAGGAGGAGGUUUAUCGAAUUUUCGGCGGAUGCCUCUAAA [A14G C71U]: 3350 ± 1700 µM.
Same read-out and setting: the figure for AUAAAAGCGCCAGACCUACAGAAAUGUAGUGGACGAGGAGGAGGUUUAUCGAAUUUUCGGCGGAUGCCUCCAAA [A15C U31G] is 3460 ± 1800 µM; for AUAAAAGCGCCAGACCUACAGAAAUGUAGUAGACGAGGAGGAGGUUUAUCGAAUUUUCGGCGGAUGCCUCCAAA [A15C U31A] it is 1860 ± 480 µM.

In another series the parent is B1. Kind of series: self-cleavage kobs at 2500 uM GlcN6P; higher = faster cleavage; RNA array. Conditions: with glucosamine-6-phosphate. An outline of the steps:
as §1
For AUAAAAGCGCCAGAGCUACAGAAAUGUAGUUGACGAGGAGGAGGUUUAUCGAACUUUCGGCGGAUGCCUCCAAA [A15G U54C], the “self-cleavage kobs at 2500 uM GlcN6P” value is 0.00524 ± 0.0048 s⁻¹.
In the case of AUAAAAGCGCCAGUACUACAGAAAUGUAGUUGACGAGGAGGUGGUUUAUCGAAUUUUCGGCGGAUGCCUCCAAA [A14U A42U], the “self-cleavage kobs at 2500 uM GlcN6P” value turned out to be 2.19e-05 ± 1.5e-05 s⁻¹.
Still for that read-out and setting: next, AUAAAAGCGCCAGAUCUACAGAAAUGUAGUUGACGAGGAGGAGGUUUUUCGAAUUUUCGGCGGAUGCCUCCAAA [A15U A48U]: 1.63e-05 ± 1.1e-05 s⁻¹.
Same read-out and setting: the figure for AUAAAAGCGCCAGAUCUACAGAAAUGUAGUUGACGAGGGGGAGGUUUAUCGAAUUUUCGGCGGAUGCCUCCAAA [A15U A39G] is 0.00265 ± 0.0013 s⁻¹; for AUAAAAGCGCCAGGACUACAGAAAUGUAGUUGACGAGGAGGAGGUUUAUCGAAUCUUCGGCGGAUGCCUCCAAA [A14G U55C] it is 0.0798 ± 0.043 s⁻¹.

A further series covers variants of B1. As to the kind of experiment: self-cleavage kobs at 160 uM GlcN6P; higher = faster cleavage; RNA array. Conditions: with glucosamine-6-phosphate. The procedure, abridged: as §1
With AUAAAAGCGCCAGUACUACAGAAAUGUAGUUGACGAGGAGAAGGUUUAUCGAAUUUUCGGCGGAUGCCUCCAAA [A14U G41A], the “self-cleavage kobs at 160 uM GlcN6P” value turned out to be 3.14e-05 ± 2.4e-05 s⁻¹.

In the next series the parent is B1. As to the kind of experiment: self-cleavage kobs at 40 uM GlcN6P; higher = faster cleavage; RNA array. The note with it: with glucosamine-6-phosphate. The procedure, abridged:
as §1
As for AUAAAAGCGCCAGUACUACAGAAAUGUAGUUGACGAGGAGUAGGUUUAUCGAAUUUUCGGCGGAUGCCUCCAAA [A14U G41U], the “self-cleavage kobs at 40 uM GlcN6P” value worked out at 1.4e-05 ± 8.4e-06 s⁻¹.
The same measure, in the same setting: next, AUAAAAGCGCCAGUACUACAGAAAUGUAGUUGACGAGGAGGAGGUUUAUCGAAUUUUCGGCGGAUGCCUGCAAA [A14U C70G]: 1.02e-05 ± 8e-06 s⁻¹.

In another series the parent is B1. As to the kind of experiment: self-cleavage kobs at 10000 uM GlcN6P; higher = faster cleavage; RNA array. The note with it: with glucosamine-6-phosphate. An outline of the steps: as §1
Consider AUAAAAGCGCCAGUACUACAGAAAUGUAGUUGACGAGGAGGAGGUUUAUCGAAUUUUCGGCGGAUGCCUGCAAA [A14U C70G], for which the “self-cleavage kobs at 10000 uM GlcN6P” value is 0.00268 ± 0.0014 s⁻¹.
